These are yes or no findings as the source states them, for the method shown. Some entries that bind do so weakly or less than the wild type.
Biological target: plasminogen kringle 4 (UniProt P00747)
Assay: binding analysis, method not described, data not shown

By UniProt entry, the sequences of proteins in these tests, tags left out. Residues count along the entry.
UniProt P00747, residues 377-454: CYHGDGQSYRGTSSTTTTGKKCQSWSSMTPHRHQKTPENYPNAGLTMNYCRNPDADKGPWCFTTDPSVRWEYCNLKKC

B1: recombinant full length tetranectin (TN123) (other)
chain: GEPPTQKPKKIVNAKKDVVNTKMFEELKSRLDTLAQEVALLKEQQALQTVCLKGTKVHMKCFLAFTQTKTFHEASEDCISRGGTLSTPQTGSENDALYEYLRQSVGNEAEIWLGLNDMAAEGTWVDMTGARIAYKNWETEITAQPDGGKTENCAVLSGAANGKWFDKRCRDQLPYICQFGIV
notes: Found as a trimer in solution; also called rTN123
  binding: binds

Reference: patent US20070154901A1 (ANAPHORE, published 2007)
